Earlier results, collected in patent publication US20230181532A1, “GRANULES FOR 3D PRINTING TECHNOLOGY” (BOARD OF REGENTS, THE UNIVERSITY OF TEXAS SYSTEM, priority 2020, published 2023).

Settings: cited from earlier work

COc1ccc2c(c1)c(CC(=O)O)c(C)n2C(=O)c1ccc(Cl)cc1 [IND, Indomethacin]
solubility in acidic pH (acidic pH): practically insoluble | solubility in water (at 35° C. in water): 7 to 9 µg/mL
